Test results reported in the supplement of paper PMC6078165.

System: Hs578T
Assay: relative JC-1 red fluorescence (viability) vs pre-drug, coculture with fibroblast (fraction); higher = more viable cancer cells
Procedure: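 JC-1 labelled TNBC cells cocultured 1:1 (1,500 cells each) with CellTrace Violet stained primary or stromal fibroblasts in 384-well plates in FluoroBrite medium, treated with one of 42 anticancer drugs at 0.1, 1, 10 or 100 uM. JC-1 red fluorescence (mitochondrial integrity in cancer cells only) was read by plate reader every 8 h for 72 h. Values are normalised to each well's pre-drug value. The stock of one drug was tenfold lower, so its dose labels may be too high.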

C#Cc1cccc(Nc2ncnc3cc(OCCOC)c(OCCOC)cc23)c1 [Erlotinib]
relative JC-1 red fluorescence
Settings	8 h	16 h	24 h	32 h	40 h	48 h	56 h	64 h	72 h
0.1 µM	0.956	0.842	0.7679	0.718	0.648	0.606	0.569	0.528	0.508
1 µM	0.867	0.799	0.781	0.7609	0.71	0.681	0.675	0.634	0.621

relative JC-1 red fluorescence
Settings	8 h	16 h	24 h	32 h	40 h	48 h	56 h	64 h	72 h
0.1 µM, coculture fibroblast: C12385	0.859	0.738	0.706	0.645	0.593	0.57	0.554	0.55	0.554
0.1 µM, coculture fibroblast: H6013	0.895	0.866	0.8488	0.848	0.83	0.818	0.802	0.81	0.781
0.1 µM, coculture fibroblast: H6019	0.793	0.7078	0.69	0.609	0.575	0.55	0.52	0.495	0.467
0.1 µM, coculture fibroblast: H6076	0.888	0.812	0.812	0.831	0.815	0.842	0.838	0.857	0.866
0.1 µM, coculture fibroblast: H6231	0.893	0.829	0.7519	0.727	0.673	0.655	0.611	0.593	0.57
0.1 µM, coculture fibroblast: HADF	0.908	0.827	0.765	0.723	0.686	0.66	0.624	0.608	0.585
0.1 µM, coculture fibroblast: HCFa	0.878	0.813	0.774	0.745	0.694	0.675	0.643	0.634	0.592
0.1 µM, coculture fibroblast: HCPF	0.958	0.859	0.799	0.765	0.708	0.681	0.658	0.621	0.609
0.1 µM, coculture fibroblast: HHSteC	0.904	0.816	0.7763	0.7395	0.683	0.646	0.612	0.5899	0.5521
0.1 µM, coculture fibroblast: HMF	0.906	0.802	0.755	0.736	0.688	0.659	0.625	0.605	0.598
0.1 µM, coculture fibroblast: HPFa	0.924	0.8187	0.776	0.735	0.701	0.677	0.636	0.617	0.572
0.1 µM, coculture fibroblast: HUF	0.858	0.7201	0.7	0.604	0.545	0.518	0.489	0.481	0.475
0.1 µM, coculture fibroblast: Hs27A	0.897	0.858	0.827	0.783	0.735	0.715	0.678	0.663	0.6127
0.1 µM, coculture fibroblast: Hs343T	0.963	0.828	0.771	0.743	0.671	0.64	0.6	0.583	0.581
0.1 µM, coculture fibroblast: WS1	0.864	0.738	0.715	0.6345	0.59	0.581	0.572	0.584	0.589
1 µM, coculture fibroblast: C12385	0.825	0.777	0.722	0.668	0.616	0.593	0.578	0.56	0.5582
1 µM, coculture fibroblast: H6013	0.8663	0.853	0.83831	0.839	0.829	0.826	0.817	0.817	0.791
1 µM, coculture fibroblast: H6019	0.794	0.739	0.734	0.676	0.6524	0.628	0.6049	0.581	0.55
1 µM, coculture fibroblast: H6076	0.901	0.869	0.828	0.815	0.78	0.7728	0.759	0.739	0.74
1 µM, coculture fibroblast: H6231	0.891	0.828	0.8282	0.797	0.742	0.732	0.705	0.689	0.679
1 µM, coculture fibroblast: HADF	0.884	0.861	0.835	0.814	0.801	0.796	0.7729	0.7776	0.768
1 µM, coculture fibroblast: HCFa	0.87	0.855	0.823	0.799	0.759	0.743	0.714	0.695	0.662
1 µM, coculture fibroblast: HCPF	0.88	0.831	0.819	0.7827	0.72869	0.699	0.6918	0.6567	0.6421
1 µM, coculture fibroblast: HHSteC	0.8825	0.8463	0.822	0.798	0.768	0.751	0.725	0.705	0.669
1 µM, coculture fibroblast: HMF	0.896	0.85	0.821	0.796	0.744	0.724	0.703	0.67	0.662
1 µM, coculture fibroblast: HPFa	0.933	0.89	0.865	0.85	0.832	0.817	0.797	0.785	0.756
1 µM, coculture fibroblast: HUF	0.863	0.782	0.765	0.697	0.638	0.609	0.576	0.562	0.551
1 µM, coculture fibroblast: Hs27A	0.898	0.876	0.88	0.874	0.846	0.84	0.8	0.808	0.755
1 µM, coculture fibroblast: Hs343T	0.908	0.8272	0.812	0.796	0.738	0.728	0.71	0.691	0.696
1 µM, coculture fibroblast: WS1	0.8088	0.7591	0.7491	0.696	0.663	0.665	0.648	0.64	0.644

The reference is the same well before dosing, and untreated signal decays as well.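 Labels refer to human fibroblasts, largely primary: uterine (C12385, HUF), lung (H6013), bone (Hs27A), adrenal (HADF), skin (WS1), plus mammary HMF and breast cancer-associated Hs343T. Cancer lines are basal-like or mesenchymal-like triple-negative breast cancer. The paper counts as hits responses shifting over 3x the replicate standard deviation. The tissue of the other fibroblasts is not given here.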
